Among the data in paper PMC9977016 are binding values, retold here.

Chains of the proteins cited; added tags and fusions are not shown. Residues count along the entry.
UniProt P19525: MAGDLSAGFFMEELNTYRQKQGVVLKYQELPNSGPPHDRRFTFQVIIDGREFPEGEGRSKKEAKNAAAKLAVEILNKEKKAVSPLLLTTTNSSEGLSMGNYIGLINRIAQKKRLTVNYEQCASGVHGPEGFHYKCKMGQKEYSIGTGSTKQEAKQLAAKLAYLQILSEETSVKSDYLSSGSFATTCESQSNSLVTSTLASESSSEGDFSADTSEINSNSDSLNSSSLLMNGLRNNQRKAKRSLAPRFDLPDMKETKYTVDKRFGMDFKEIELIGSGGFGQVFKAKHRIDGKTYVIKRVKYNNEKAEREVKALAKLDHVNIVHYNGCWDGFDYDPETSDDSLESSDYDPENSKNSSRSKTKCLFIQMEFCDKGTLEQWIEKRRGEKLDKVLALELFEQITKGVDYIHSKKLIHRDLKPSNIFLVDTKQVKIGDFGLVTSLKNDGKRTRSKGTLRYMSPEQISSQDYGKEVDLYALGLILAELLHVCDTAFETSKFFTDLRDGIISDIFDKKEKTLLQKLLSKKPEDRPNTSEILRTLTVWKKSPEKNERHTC
UniProt Q99IB8, residues 1977-2442: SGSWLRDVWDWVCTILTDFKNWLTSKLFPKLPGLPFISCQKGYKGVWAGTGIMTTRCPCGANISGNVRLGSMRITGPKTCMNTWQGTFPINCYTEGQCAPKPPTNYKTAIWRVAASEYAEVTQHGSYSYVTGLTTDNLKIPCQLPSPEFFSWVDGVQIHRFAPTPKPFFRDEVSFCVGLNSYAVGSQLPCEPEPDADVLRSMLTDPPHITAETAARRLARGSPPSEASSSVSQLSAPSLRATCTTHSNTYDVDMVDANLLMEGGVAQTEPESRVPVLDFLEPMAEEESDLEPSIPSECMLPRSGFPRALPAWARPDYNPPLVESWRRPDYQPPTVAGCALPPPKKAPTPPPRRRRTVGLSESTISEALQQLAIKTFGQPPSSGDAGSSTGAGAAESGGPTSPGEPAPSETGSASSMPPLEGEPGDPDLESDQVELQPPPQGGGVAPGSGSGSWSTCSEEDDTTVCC

Results are given in words; binding and its absence hold for the method and conditions named. In cells and extracts the contact can be indirect. Some entries that bind do so weakly or less than the wild type.

This assay concerns the target interferon-induced double-stranded RNA-dependent protein kinase (PKR), endogenous in Huh7.5 cells (human (endogenous in Huh7.5)) (UniProt P19525). The assay is described as follows: co-IP; lysates of Huh7.5 cells electroporated with mJFH-1 RNAs, 72 hpe; IP buffer 25 mM Tris-HCl pH 7.4, 150 mM NaCl, 1% NP-40, 1 mM EDTA, 5% glycerol; anti-PKR antibody overnight at 4°C, protein G beads; western blot for NS5A. (In general: In western blotting, separated proteins are transferred to a membrane and probed.)

In the case of “NS5A, wildtype, hepatitis C virus genotype 2a (JFH-1) (from UniProt Q99IB8 1977-2442)”, the binding entry is reported as “binds weakly”.
